# Source: the supplement of paper PMC3334620
# In all, about 33,000 sequences were measured (“E-score (-0.5 to 0.5)”: median about -8e-05, highest 2% from about 0.23 on). This is one part of the list.
# Biological target: T1, Nrg2 (UniProt P38082)
# T1 sequence: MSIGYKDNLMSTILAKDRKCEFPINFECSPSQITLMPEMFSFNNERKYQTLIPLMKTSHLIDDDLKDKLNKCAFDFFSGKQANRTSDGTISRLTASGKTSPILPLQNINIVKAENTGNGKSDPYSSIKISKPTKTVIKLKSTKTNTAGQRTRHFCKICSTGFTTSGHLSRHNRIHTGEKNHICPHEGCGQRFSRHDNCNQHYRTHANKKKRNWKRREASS
# Experiment: PBM E-score (8-mer binding enrichment) (E-score (-0.5 to 0.5)); higher = stronger / more preferred TF binding
# Details: protein concentration: 100 nM; construct: GST-full length
# Procedure: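 Universal 'all 10-mer' protein binding microarrays (Agilent AMADID 015681) probed with GST-tagged S. cerevisiae TFs (full-length or DBD) made by in vitro transcription/translation (PURExpress), about 100-200 nM. Bound TF was detected with fluorescent anti-GST. Each ungapped 8-mer (which stands for itself and its reverse complement) is scored by the PBM enrichment score (E-score), a modified Wilcoxon-Mann-Whitney statistic from -0.5 to +0.5, computed with the Universal PBM Analysis Suite. Scale: above 0.35 generally sequence-specific binding.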
row,Sequence,PBM E-score
1,CGGGGCCA,0.034
2,CACACCTA,0.014
3,ACGCATAT,0.098
4,CAATTATG,0.0379
5,ACTGGCAT,-0.108
6,CGGCTCAG,0.0506
7,CATGATAA,0.0937
8,TGTAGACA,0.00823
9,ATCGTGTA,-0.0402
10,CTCGGAAC,0.0666
11,ACGCATAG,0.0951
12,CTGTTCTA,-0.104
13,GCATGTCC,-0.0894
14,ACGCATCT,-0.0297
15,CAGTCGCA,-0.13
16,ACCGAATC,-0.0562
17,ACAAGCGC,0.0708
18,CTGCCACC,-0.338
19,ATTTTTGA,0.0108
20,AAGTGGTA,-0.0491
21,CCTCACCA,-0.0117
22,AAGAAATG,0.183
23,AGGGCTCG,0.0217
24,ACCGAGGG,-0.308
25,CCCGGGTC,-0.0843

row,Sequence,PBM E-score
1,AGCGCGGC,0.0579
2,CGGGTAAA,0.117
3,CTACTCTA,-0.0109
4,ATTTGGTA,0.081
5,GATCTGAC,0.0527
6,CGATTAAA,0.0468
7,AGCGTTCC,0.0239
8,CTATTGAG,0.148
9,GATTAATC,0.116
10,CATCCTCG,-0.0167
11,GTCGCTAA,-0.0617
12,ATATTATG,0.304
13,ATATGCAA,0.0594
14,AACTATTA,0.125
15,CTGGTCCC,-0.0433
16,CCAACGAG,-0.13
17,ACTTAATG,0.0989
18,ATCGAGAC,-0.0993
19,ATCGTGCA,0.0864
20,AGCCATAT,-0.0547
21,CTGGACTA,-0.129
22,CAGGTTCA,-0.0574
23,GCGATCTA,0.128
24,CGTGTGAA,-0.0465
25,CCAAGGAG,-0.0878

row,Sequence,PBM E-score
1,GTCTCCAC,-0.0329
2,AAGGCAGA,-0.092
3,CTCTGGTC,-0.153
4,CGATCCTC,-0.12
5,TCCATAAA,0.0921
6,ACGTACTC,-0.004
7,CCCTATAA,-0.113
8,AGATAATC,-0.0178
9,CAGCGATA,-0.0715
10,GATCCAGA,0.187
11,CCACGCCG,-0.154
12,AATGGTTA,0.00607
13,AAGATTCA,0.0877
14,AAGACTAT,-0.0854
15,AAGGGACT,0.123
16,CAGCCTAA,-0.187
17,GACACAGA,0.0495
18,ACGGACAC,0.051
19,CTCCTCGA,0.0152
20,CTTCGCGC,0.232
21,CAACACGG,0.104
22,CCAACTAC,0.0973
23,TATTAATA,0.152
24,CCATCGAG,0.21
25,CCGCTCAG,-0.0837

# Quoted from the results shown for reference:
row,Sequence,PBM E-score
8,AGATAATC,-0.0178
9,CAGCGATA,-0.0715
10,GATCCAGA,0.187

# Reprinted at random: 2 records from the list, in no set order.
row,Sequence,PBM E-score
12,AATGGTTA,0.00607
8,AGATAATC,-0.0178

# The results go on.

row,Sequence,PBM E-score
1,GAGTGCGA,-0.0302
2,CAACATAC,0.0785
3,ACTTCACA,-0.0488
4,CCCAACGC,0.0482
5,CTTAAGCC,-0.0732
6,CAGAGCAG,-0.0155
7,ACAAGAAT,0.0779
8,AATTGTAC,0.123
9,ACGGCCCG,-0.1
10,ATGCGTTG,-0.0299
11,ACTCTCTC,-0.0585
12,GACTTAAA,-0.156
13,AGTATACA,0.152
14,ACTGTTTG,0.0928
15,ACTTTGGA,-0.0192
16,CTGGGAAC,0.191
17,GCATCCAC,0.0455
18,GGTTTAAC,0.0156
19,ACTGTCCG,0.0479
20,TGCGTACA,0.00957
21,CGCTGAGA,0.101
22,TACAACAA,0.137
23,GCCAGAAA,0.189
24,AACCTTAC,0.108
25,CTGTGGTA,0.0338

# A few values from above.
# Value for CGCTGAGA under PBM E-score: 0.101
# Value for GCATCCAC under PBM E-score: 0.0455
# Value for CTGGGAAC under PBM E-score: 0.191

# (next part)

row,Sequence,PBM E-score
1,CAGCAGTC,-0.0644
2,CCATATAC,0.106
3,ATTGATAG,-0.0275
4,AGGGCGGC,-0.15
5,ACACTTCT,-0.0302
6,CTATGAAA,0.094
7,ATATAACA,0.078
8,GACACCTA,-0.0331
9,GTTCATAA,0.00496
10,AATCTACC,-0.0203
11,GTCTGTTA,0.0486
12,CGAATGAG,0.0496
13,ATTTTACG,0.123
14,GGCTAAAA,-0.179
15,CCTCTAAC,-0.116
16,ACTGACAT,0.0848
17,ATAGATCC,0.0868
18,AGACGAGA,0.0307
19,GCCATGTA,-0.00257
20,TAATAACA,0.00017
21,ACGATCCA,-0.0753
22,CAGTAATC,0.0128
23,AGACAAAG,-0.0323
24,AACTTTAT,0.124
25,CCACTCCG,0.0616

row,Sequence,PBM E-score
1,AAGCTACG,0.00996
2,CTTAGTCA,-0.0736
3,GATTGAGA,0.227
4,AAGGTTGG,-0.0643
5,GTATTGGA,-0.161
6,GCCGAAAC,-0.0148
7,AATTAGAT,0.182
8,GCATCGCA,-0.109
9,AACGATAC,0.00715
10,GATAGTCC,0.0182
11,GCAATGCC,0.00399
12,CCACGTAA,-0.0711
13,GGACAAGA,0.159
14,ATATTCAA,0.244
15,ACCGGATC,-0.0249
16,GTCCCCCA,-0.24
17,CCTAAGAA,-0.0478
18,TAACCCTA,0.0534
19,GCGTAGCA,0.12
20,ACCGCCGT,0.00098
21,TAGTTTAA,0.0774
22,AACTCATT,-0.0375
23,AGTGGCCA,-0.00148
24,CATGCATG,0.0614
25,AGAATACC,0.191

row,Sequence,PBM E-score
1,AGTACCGG,-0.203
2,CTAAGTAG,0.136
3,GAGGTCGC,-0.194
4,CGAGACTC,-0.0745
5,GACCGGGC,-0.143
6,AATTACCA,0.0983
7,CTAACCTA,0.168
8,GAATCGAC,0.192
9,GAGACTGA,-0.0293
10,CGCTTACA,-0.0388
11,GCCCATAA,-0.107
12,CTGTAGCC,-0.207
13,GCTCACCA,-0.0261
14,TGTAGCAA,0.0839
15,ATTATGTC,0.039
16,AAGCTTCC,-0.206
17,GGGCAGGA,-0.0226
18,CTTGGGCA,0.0776
19,GCTCCCCA,-0.225
20,ATAGATTC,-0.0319
21,ATACGTAT,0.176
22,AACGATTA,0.00656
